In the supplement of paper PMC10849652:
The list shows a part of the results.

By UniProt entry, the sequences of proteins in these tests, tags left out. Where a name states a change or a piece, a line headed by the entry shows the natural chain unless it says otherwise.
UniProt O95562: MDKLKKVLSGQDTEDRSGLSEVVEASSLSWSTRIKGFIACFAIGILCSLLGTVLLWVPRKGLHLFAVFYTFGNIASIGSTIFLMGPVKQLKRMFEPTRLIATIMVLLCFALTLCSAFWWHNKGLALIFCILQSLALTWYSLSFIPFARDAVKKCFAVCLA
UniProt O43765: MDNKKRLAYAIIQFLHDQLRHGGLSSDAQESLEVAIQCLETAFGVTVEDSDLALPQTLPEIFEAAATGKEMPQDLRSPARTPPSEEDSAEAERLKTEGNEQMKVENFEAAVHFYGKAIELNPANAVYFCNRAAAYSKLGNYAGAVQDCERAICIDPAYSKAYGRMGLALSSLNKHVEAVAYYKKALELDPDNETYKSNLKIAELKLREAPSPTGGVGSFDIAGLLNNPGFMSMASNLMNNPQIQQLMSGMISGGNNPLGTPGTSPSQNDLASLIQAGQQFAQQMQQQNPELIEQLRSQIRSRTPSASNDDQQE
UniProt O75533, whole entry, looked up: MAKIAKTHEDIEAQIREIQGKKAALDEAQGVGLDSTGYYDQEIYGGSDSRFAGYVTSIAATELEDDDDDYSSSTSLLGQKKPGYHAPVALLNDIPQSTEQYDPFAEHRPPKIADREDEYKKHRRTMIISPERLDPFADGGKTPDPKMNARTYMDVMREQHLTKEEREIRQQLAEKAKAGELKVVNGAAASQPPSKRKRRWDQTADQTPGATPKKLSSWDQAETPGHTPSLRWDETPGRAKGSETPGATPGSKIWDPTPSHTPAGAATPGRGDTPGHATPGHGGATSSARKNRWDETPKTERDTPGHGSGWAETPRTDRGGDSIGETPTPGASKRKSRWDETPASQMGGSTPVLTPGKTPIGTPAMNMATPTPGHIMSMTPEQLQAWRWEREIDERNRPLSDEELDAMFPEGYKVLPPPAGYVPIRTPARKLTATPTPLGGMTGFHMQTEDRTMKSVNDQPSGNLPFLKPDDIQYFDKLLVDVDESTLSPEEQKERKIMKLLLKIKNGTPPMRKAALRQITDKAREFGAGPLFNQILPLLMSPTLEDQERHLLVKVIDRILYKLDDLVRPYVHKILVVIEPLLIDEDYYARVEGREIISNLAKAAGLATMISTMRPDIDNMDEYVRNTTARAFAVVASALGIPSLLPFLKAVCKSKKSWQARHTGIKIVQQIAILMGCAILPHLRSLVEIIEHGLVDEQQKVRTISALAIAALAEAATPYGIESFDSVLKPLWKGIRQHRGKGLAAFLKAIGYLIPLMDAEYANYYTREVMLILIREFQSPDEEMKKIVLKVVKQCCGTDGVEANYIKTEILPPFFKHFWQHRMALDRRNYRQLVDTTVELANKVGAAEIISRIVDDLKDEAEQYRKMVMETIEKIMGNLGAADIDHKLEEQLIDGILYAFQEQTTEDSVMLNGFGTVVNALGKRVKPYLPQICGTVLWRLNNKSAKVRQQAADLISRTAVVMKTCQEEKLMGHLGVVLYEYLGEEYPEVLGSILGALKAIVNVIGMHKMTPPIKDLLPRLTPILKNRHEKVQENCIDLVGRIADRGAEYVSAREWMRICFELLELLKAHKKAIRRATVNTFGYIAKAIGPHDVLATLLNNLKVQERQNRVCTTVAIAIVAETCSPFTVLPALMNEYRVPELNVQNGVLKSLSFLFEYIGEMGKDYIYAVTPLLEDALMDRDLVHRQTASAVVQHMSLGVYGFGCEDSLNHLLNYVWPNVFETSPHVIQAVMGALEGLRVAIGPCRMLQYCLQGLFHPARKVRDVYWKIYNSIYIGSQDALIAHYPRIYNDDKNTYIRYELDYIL
UniProt Q99961: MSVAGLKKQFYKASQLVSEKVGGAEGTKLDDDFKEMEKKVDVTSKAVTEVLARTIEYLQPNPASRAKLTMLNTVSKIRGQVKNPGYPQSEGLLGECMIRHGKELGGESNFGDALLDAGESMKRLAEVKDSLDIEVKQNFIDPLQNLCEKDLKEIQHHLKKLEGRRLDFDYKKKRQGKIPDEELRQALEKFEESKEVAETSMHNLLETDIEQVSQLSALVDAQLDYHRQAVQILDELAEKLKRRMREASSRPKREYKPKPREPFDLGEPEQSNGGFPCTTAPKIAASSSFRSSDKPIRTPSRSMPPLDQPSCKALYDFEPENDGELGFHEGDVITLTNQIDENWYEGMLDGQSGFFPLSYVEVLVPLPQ
UniProt P63208, whole entry, looked up: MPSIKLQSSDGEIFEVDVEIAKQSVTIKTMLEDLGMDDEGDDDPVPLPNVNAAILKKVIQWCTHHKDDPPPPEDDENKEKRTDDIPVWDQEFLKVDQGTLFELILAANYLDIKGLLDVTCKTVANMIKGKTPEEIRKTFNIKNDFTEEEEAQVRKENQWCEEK
UniProt Q8NEM2: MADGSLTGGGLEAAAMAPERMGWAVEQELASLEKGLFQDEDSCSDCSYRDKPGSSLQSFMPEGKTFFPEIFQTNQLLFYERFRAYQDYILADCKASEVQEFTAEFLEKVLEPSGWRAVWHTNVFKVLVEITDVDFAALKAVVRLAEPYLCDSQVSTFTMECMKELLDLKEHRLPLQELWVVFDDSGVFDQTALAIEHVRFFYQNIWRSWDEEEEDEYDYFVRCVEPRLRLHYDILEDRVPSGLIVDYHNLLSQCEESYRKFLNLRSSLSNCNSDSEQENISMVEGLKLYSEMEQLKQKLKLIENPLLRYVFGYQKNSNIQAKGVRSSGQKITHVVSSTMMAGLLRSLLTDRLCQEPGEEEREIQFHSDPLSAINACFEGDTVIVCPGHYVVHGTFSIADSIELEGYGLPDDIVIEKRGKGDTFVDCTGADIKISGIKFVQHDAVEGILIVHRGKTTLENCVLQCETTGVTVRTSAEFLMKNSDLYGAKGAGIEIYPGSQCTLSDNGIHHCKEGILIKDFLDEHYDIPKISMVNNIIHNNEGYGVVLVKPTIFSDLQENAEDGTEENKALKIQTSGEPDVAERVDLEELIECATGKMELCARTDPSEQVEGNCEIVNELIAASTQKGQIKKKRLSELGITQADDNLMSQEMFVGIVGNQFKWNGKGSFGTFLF
UniProt Q8NBJ9: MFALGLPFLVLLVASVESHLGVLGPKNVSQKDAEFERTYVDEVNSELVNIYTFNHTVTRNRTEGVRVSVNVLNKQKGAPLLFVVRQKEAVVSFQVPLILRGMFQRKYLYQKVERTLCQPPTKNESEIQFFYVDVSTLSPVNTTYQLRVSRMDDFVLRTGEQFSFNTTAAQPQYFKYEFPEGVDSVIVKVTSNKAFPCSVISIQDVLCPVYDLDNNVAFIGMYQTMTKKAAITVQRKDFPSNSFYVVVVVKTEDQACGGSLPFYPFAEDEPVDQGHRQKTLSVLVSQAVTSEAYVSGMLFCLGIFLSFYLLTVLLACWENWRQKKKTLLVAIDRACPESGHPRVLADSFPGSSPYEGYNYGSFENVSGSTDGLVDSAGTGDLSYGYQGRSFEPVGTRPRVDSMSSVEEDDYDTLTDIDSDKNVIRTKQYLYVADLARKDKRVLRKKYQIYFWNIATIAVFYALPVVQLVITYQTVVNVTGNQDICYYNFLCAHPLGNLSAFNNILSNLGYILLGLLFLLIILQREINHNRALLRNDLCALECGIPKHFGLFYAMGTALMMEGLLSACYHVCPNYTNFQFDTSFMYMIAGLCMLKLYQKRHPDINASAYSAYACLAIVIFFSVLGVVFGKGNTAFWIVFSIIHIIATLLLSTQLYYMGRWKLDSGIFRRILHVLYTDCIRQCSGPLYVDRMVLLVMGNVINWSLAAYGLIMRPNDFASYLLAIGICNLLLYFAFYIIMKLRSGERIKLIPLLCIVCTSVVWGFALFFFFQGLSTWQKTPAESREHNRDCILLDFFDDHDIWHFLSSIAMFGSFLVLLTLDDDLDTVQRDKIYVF
UniProt P55011: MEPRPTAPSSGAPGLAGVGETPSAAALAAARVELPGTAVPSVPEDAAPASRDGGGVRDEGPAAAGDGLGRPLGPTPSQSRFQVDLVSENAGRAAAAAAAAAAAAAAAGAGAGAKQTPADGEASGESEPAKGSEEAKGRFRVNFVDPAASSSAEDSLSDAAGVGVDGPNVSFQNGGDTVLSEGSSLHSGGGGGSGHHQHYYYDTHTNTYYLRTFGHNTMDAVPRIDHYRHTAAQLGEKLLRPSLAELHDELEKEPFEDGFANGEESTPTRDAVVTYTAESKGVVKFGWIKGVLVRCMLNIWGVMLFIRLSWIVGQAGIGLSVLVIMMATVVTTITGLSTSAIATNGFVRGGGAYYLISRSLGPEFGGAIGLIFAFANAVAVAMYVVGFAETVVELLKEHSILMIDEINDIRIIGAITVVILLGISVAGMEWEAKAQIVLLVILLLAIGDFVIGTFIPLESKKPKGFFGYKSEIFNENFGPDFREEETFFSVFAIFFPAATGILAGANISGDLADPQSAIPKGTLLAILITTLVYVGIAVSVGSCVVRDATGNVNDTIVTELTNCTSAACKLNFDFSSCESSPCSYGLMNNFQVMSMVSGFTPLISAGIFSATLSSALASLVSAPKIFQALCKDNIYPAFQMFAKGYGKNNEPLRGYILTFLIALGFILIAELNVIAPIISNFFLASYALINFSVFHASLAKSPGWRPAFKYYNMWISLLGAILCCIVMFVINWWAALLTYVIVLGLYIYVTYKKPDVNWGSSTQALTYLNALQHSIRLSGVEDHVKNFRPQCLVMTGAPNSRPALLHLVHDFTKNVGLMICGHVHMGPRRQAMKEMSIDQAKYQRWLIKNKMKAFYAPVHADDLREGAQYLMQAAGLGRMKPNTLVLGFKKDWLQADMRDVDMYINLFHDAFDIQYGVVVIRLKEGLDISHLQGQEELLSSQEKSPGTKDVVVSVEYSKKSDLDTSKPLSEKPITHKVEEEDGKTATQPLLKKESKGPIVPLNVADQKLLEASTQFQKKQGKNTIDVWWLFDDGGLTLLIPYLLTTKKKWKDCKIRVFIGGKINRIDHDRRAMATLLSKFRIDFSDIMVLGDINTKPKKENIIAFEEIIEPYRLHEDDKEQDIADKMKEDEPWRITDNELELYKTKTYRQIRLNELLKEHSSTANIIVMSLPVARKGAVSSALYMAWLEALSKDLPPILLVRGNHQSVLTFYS
UniProt Q9NP31, whole entry, looked up: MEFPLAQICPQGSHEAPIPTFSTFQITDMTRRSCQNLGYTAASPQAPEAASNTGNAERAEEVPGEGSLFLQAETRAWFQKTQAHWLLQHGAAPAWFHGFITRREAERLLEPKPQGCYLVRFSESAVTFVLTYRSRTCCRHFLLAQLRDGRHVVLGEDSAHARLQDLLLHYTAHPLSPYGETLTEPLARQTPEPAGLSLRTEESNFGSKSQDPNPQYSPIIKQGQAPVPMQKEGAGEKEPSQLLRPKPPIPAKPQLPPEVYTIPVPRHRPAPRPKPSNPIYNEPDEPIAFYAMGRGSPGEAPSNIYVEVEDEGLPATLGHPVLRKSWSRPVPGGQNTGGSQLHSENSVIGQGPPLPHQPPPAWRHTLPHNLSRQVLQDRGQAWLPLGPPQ
UniProt Q12874: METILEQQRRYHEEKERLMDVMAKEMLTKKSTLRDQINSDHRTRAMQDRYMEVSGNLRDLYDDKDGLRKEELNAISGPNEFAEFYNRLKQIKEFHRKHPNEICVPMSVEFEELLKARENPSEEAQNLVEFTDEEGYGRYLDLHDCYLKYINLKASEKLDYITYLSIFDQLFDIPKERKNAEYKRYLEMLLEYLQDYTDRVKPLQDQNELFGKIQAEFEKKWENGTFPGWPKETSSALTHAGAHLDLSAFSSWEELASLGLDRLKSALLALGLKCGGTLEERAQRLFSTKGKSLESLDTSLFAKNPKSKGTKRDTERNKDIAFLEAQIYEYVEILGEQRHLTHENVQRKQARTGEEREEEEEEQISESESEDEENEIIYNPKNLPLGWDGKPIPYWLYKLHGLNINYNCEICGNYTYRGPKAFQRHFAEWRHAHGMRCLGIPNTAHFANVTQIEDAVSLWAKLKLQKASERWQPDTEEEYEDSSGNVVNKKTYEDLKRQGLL
UniProt P58004: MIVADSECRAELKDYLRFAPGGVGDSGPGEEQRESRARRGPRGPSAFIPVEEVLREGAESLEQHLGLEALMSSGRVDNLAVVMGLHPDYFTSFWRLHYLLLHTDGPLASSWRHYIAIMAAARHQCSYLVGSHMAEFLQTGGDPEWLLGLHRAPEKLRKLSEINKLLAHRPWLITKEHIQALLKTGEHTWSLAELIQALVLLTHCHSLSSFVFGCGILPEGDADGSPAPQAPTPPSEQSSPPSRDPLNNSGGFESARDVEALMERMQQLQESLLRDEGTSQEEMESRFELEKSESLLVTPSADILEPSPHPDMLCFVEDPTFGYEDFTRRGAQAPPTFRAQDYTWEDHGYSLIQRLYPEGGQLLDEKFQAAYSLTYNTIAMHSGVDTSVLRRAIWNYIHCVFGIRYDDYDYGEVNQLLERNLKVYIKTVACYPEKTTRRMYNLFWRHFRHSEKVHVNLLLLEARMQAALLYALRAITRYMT

Key:
Assay in all cases: log2 fold change, soluble protein after heating vs DMSO (PISA); higher = thermal stabilisation; K562 lysate, 10 uM; active = over 0.2 and 3.5 SD of the protein, either way, in both replicates (recomputed)
erlotinib = compound: C#Cc1cccc(Nc2ncnc3cc(OCCOC)c(OCCOC)cc23)c1 [erlotinib]
Procedure, shortened: (§1)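 To prepare the extract, K562 pellets were dounce-homogenised in PBS pH 7.4 with 1 mM MgCl2, giving crude material at 1 mg/mL protein. This was treated with 10 μM compound for 30 min, then heated in aliquots for 3 min over 48°C-58°C before pooling and addition of NP-40 to 0.5% at 4°C. Centrifugation at 21,000xg for 90 min left soluble protein in the supernatant, which TMTpro 16plex LC-MS/MS quantified with equalised channel sums. Results are log-two fold changes in thermal stability compared with solvent controls, from duplicates.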

[1] = compound: C/C(=N\NC(=O)C1=CC(=CC=C1)S(=O)(=O)N2CCOCC2)/C3=C(C=CC(=C3)Cl)O
Procedure, shortened: as §1

[2] = compound: C1=CC(=CC=C1C2=NC3=C(N2)C=C(C=C3)C(=O)N)OC4=CC=C(C=C4)Cl
Procedure, shortened: as §1

[3] = compound: C1=CC2=C(C=CC(=C2)/C=C\3/C(=O)NC(=NCC4=CC=CS4)S3)N=C1
Procedure, shortened: as §1

[4] = compound: C1=CC2=NC=CN=C2C=C1/C=C/3\C(=O)NC(=O)S3
Procedure, shortened: as §1

[5] = compound: C1=CC=C(C=C1)C2=NC(=C(N2)C3=CC=NC=C3)C4=CC(=C(C=C4)Cl)O
Procedure, shortened: as §1

[6] = compound: C1=CC=C2C(=C1)C3=NNC4=CC=CC(=C43)C2=O
Procedure, shortened: as §1

[7] = compound: C1CCN(C1)C(=O)NC2=CC=CC(=C2)NC3=NC=C(C(=N3)NCCC4=CN=CN4)Br
Procedure, shortened: as §1

[8] = compound: C1CN(CCC1(CC2=CC=C(C=C2)Cl)N)C3=NC=NC4=C3C=CN4
Procedure, shortened: as §1

IRAK-1-4 Inhibitor I = compound: C1COCCN1CCN2C3=CC=CC=C3N=C2NC(=O)C4=CC(=CC=C4)[N+](=O)[O-] [IRAK-1-4 Inhibitor I]
Procedure, shortened: as §1

ibrutinib = compound: C=CC(=O)N1CCC[C@@H](n2nc(-c3ccc(Oc4ccccc4)cc3)c3c(N)ncnc32)C1 [ibrutinib]
Procedure, shortened: as §1

[9] = compound: CC(=O)c1cnc2ccc(-c3cc(Cl)c(O)c(Cl)c3)nc2c1N[C@H]1CC[C@H](CN(C)C)CC1
Procedure, shortened: as §1

ralimetinib = compound: CC(C)(C)Cn1c(N)nc2ccc(-c3[nH]c(C(C)(C)C)nc3-c3ccc(F)cc3)nc21 [ralimetinib]
Procedure, shortened: as §1

[10] = compound: CC(C)(O)CC(=O)NCCn1ccc2ncnc(Nc3ccc(Oc4cccc(C(F)(F)F)c4)c(Cl)c3)c21
Procedure, shortened: as §1

[11] = compound: CC(C)C1=C2N=C(C=C(N2N=C1)NCC3=CC=CC=C3)NCCCCCCN
Procedure, shortened: as §1

[12] = compound: CC1=C(C(CC(=O)N1)C2=CC=C(C=C2)C(F)(F)F)C(=O)NC3=C(C=C4C(=C3)C=NN4)F
Procedure, shortened: as §1

[13] = compound: CC1=C(C2=C(C=C1)C(=O)C3=CC=CC=C3N2CCCN)C
Procedure, shortened: as §1

[14] = compound: CC1=C(C=C(C=C1)NC(=O)C2=CC(=CC=C2)C(C)(C)C#N)NC3=CC4=C(C=C3)N=CN(C4=O)C
Procedure, shortened: as §1

[15] = compound: CC1=C(C=C(C=C1)NC(=O)C2=CC(=CC=C2)N(C)C)NC(=O)C3=CC=C(C=C3)O
Procedure, shortened: as §1

[16] = compound: CC1=CC=C(C=C1)SC2=C3C=C(SC3=CN=C2)C(=O)N
Procedure, shortened: as §1

Measured: log2 fold change

SFSWAP isoform 2 (UniProt Q12872)
inactive: erlotinib 0.022 | [1] -0.044 | [2] 0.006 | [3] 0.052 | [4] -0.115 | [5] -0.091 | [6] -0.006 | [7] 0 | [8] 0.023 | IRAK-1-4 Inhibitor I -0.006 | ibrutinib 0.028 | [9] -0.006 | ralimetinib 0.013 | [10] -0.023 | [11] 0.005 | [12] 0 | [13] -0.006 | [14] 0.009 | [15] 0.038 | [16] 0.097

SFT2D2 (UniProt O95562)
inactive: erlotinib 0.074 | [1] -0.11 | [2] -0.118 | [3] -0.017 | [4] -0.047 | [5] -0.058 | [6] 0.069 | [7] 0.013 | [8] -0.068 | IRAK-1-4 Inhibitor I 0.024 | ibrutinib 0.08 | [9] 0.003 | ralimetinib 0.009 | [10] 0.007 | [11] -0.072 | [12] 0.039 | [13] -0.049 | [14] -0.08 | [15] 0.046 | [16] -0.04

SGTA (UniProt O43765)
inactive: erlotinib -0.007 | [1] -0.038 | [2] 0.034 | [3] 0.004 | [4] -0.006 | [5] 0.019 | [6] 0.032 | [7] 0.03 | [8] 0.023 | IRAK-1-4 Inhibitor I -0.007 | ibrutinib 0.033 | [9] 0.004 | ralimetinib -0.018 | [10] 0.014 | [11] 0.022 | [12] -0.036 | [13] 0.016 | [14] 0.01 | [15] -0.01 | [16] -0.009

SF3B1 (UniProt O75533)
inactive: erlotinib -0.006 | [1] -0.05 | [2] -0.018 | [3] 0.022 | [4] -0.001 | [5] -0.013 | [6] -0.01 | [7] -0.009 | [8] 0.007 | IRAK-1-4 Inhibitor I -0.002 | ibrutinib -0.027 | [9] -0.002 | ralimetinib 0.018 | [10] -0.017 | [11] 0.011 | [12] -0.022 | [13] -0.006 | [14] 0.019 | [15] 0 | [16] 0.016

SHMT1 (UniProt P34896)
inactive: erlotinib 0.005 | [1] -0.007 | [2] 0.012 | [3] -0.016 | [4] 0.006 | [5] -0.023 | [6] -0.013 | [7] 0.028 | [8] 0.013 | IRAK-1-4 Inhibitor I 0.014 | ibrutinib 0.018 | [9] 0.001 | ralimetinib 0.005 | [10] -0.013 | [11] -0.024 | [12] -0.005 | [13] -0.001 | [14] 0.037 | [15] -0.02 | [16] -0.027

SHTN1 (UniProt A0MZ66)
inactive: erlotinib -0.023 | [1] -0.08 | [2] 0.02 | [3] 0.009 | [4] -0.024 | [5] 0.015 | [6] -0.026 | [7] 0.008 | [8] -0.005 | IRAK-1-4 Inhibitor I -0.011 | ibrutinib 0.003 | [9] -0.003 | ralimetinib -0.003 | [10] 0.003 | [11] -0.009 | [12] 0 | [13] -0.031 | [14] 0.023 | [15] 0.004 | [16] -0.004

SH3GL1 (UniProt Q99961)
inactive: erlotinib -0.009 | [1] 0.016 | [2] -0.022 | [3] -0.004 | [4] -0.008 | [5] 0.001 | [6] -0.003 | [7] -0.027 | [8] 0.006 | IRAK-1-4 Inhibitor I -0.017 | ibrutinib -0.004 | [9] 0 | ralimetinib 0.031 | [10] 0.006 | [11] -0.015 | [12] -0.03 | [13] 0.017 | [14] 0.025 | [15] 0.006 | [16] -0.012

SKP1 (UniProt P63208)
inactive: erlotinib -0.005 | [1] 0.032 | [2] 0.037 | [3] -0.001 | [4] -0.016 | [5] 0.016 | [6] 0.003 | [7] 0.003 | [8] 0.009 | IRAK-1-4 Inhibitor I -0.008 | ibrutinib 0.063 | [9] -0.005 | ralimetinib -0.019 | [10] -0.002 | [11] 0.019 | [12] -0.033 | [13] 0.001 | [14] 0.02 | [15] -0.007 | [16] -0.011

SHCBP1 (UniProt Q8NEM2)
inactive: erlotinib 0.034 | [1] 0.01 | [2] -0.035 | [3] -0.023 | [4] 0.007 | [5] 0.032 | [6] 0.005 | [7] 0.014 | [8] -0.014 | IRAK-1-4 Inhibitor I 0.018 | ibrutinib -0.04 | [9] 0.023 | ralimetinib 0.026 | [10] 0.031 | [11] 0.012 | [12] 0.009 | [13] 0.002 | [14] -0.008 | [15] 0.056 | [16] -0.041

SIDT2 isoform 2 (UniProt Q8NBJ9)
inactive: erlotinib -0.014 | [1] 0.046 | [2] 0.047 | [3] 0.021 | [4] -0.048 | [5] 0 | [6] -0.035 | [7] 0.012 | [8] 0.026 | IRAK-1-4 Inhibitor I 0.061 | ibrutinib 0.025 | [9] 0.058 | ralimetinib 0.045 | [10] -0.019 | [11] -0.005 | [12] 0.008 | [13] 0.074 | [14] -0.014 | [15] -0.027 | [16] 0.011

SIKE1 (UniProt Q9BRV8)
inactive: erlotinib -0.032 | [1] 0.043 | [2] -0.039 | [3] 0.042 | [4] -0.043 | [5] 0.033 | [6] -0.071 | [7] -0.01 | [8] -0.016 | IRAK-1-4 Inhibitor I 0.006 | ibrutinib 0.162 | [9] 0.006 | ralimetinib 0.001 | [10] 0.046 | [11] -0.005 | [12] -0.01 | [13] -0.026 | [14] 0.062 | [15] -0.028 | [16] -0.042

SLC12A2 (UniProt P55011)
inactive: erlotinib 0.039 | [1] -0.037 | [2] 0.007 | [3] -0.003 | [4] -0.066 | [5] -0.022 | [6] 0.01 | [7] -0.012 | [8] 0.018 | IRAK-1-4 Inhibitor I -0.003 | ibrutinib 0.009 | [9] 0.024 | ralimetinib 0.029 | [10] -0.09 | [11] -0.015 | [12] 0.029 | [13] 0.031 | [14] 0.001 | [15] 0.012 | [16] -0.005

SH2D2A isoform 2 (UniProt Q9NP31)
inactive: erlotinib -0.046 | [1] 0.078 | [2] 0.06 | [3] 0.105 | [4] -0.022 | [5] 0.146 | [6] -0.074 | [7] 0.038 | [8] 0.126 | IRAK-1-4 Inhibitor I -0.025 | ibrutinib -0.046 | [9] -0.018 | ralimetinib -0.12 | [10] 0.044 | [11] 0.103 | [12] -0.144 | [13] -0.125 | [14] 0.003 | [15] 0.05 | [16] 0.139

Quoted from the entries so far (three entries):
SIKE1 (UniProt Q9BRV8)
inactive: erlotinib -0.032 | [1] 0.043 | [2] -0.039 | [3] 0.042 | [4] -0.043 | [5] 0.033 | [6] -0.071 | [7] -0.01 | [8] -0.016 | IRAK-1-4 Inhibitor I 0.006 | ibrutinib 0.162 | [9] 0.006 | ralimetinib 0.001 | [10] 0.046 | [11] -0.005 | [12] -0.01 | [13] -0.026 | [14] 0.062 | [15] -0.028 | [16] -0.042

SLC12A2 (UniProt P55011)
inactive: erlotinib 0.039 | [1] -0.037 | [2] 0.007 | [3] -0.003 | [4] -0.066 | [5] -0.022 | [6] 0.01 | [7] -0.012 | [8] 0.018 | IRAK-1-4 Inhibitor I -0.003 | ibrutinib 0.009 | [9] 0.024 | ralimetinib 0.029 | [10] -0.09 | [11] -0.015 | [12] 0.029 | [13] 0.031 | [14] 0.001 | [15] 0.012 | [16] -0.005

SH2D2A isoform 2 (UniProt Q9NP31)
inactive: erlotinib -0.046 | [1] 0.078 | [2] 0.06 | [3] 0.105 | [4] -0.022 | [5] 0.146 | [6] -0.074 | [7] 0.038 | [8] 0.126 | IRAK-1-4 Inhibitor I -0.025 | ibrutinib -0.046 | [9] -0.018 | ralimetinib -0.12 | [10] 0.044 | [11] 0.103 | [12] -0.144 | [13] -0.125 | [14] 0.003 | [15] 0.05 | [16] 0.139

(further entries)

SF3A3 (UniProt Q12874)
inactive: erlotinib -0.007 | [1] 0.037 | [2] -0.033 | [3] 0.014 | [4] 0.054 | [5] 0.011 | [6] -0.027 | [7] -0.028 | [8] 0.03 | IRAK-1-4 Inhibitor I -0.033 | ibrutinib -0.032 | [9] 0.024 | ralimetinib -0.019 | [10] -0.006 | [11] 0.024 | [12] 0 | [13] 0.022 | [14] -0.054 | [15] 0.021 | [16] 0.004

SESN2 (UniProt P58004)
inactive: erlotinib 0.043 | [1] 0.102 | [2] -0.007 | [3] -0.017 | [4] 0.023 | [5] -0.037 | [6] -0.07 | [7] 0.051 | [8] -0.014 | IRAK-1-4 Inhibitor I -0.048 | ibrutinib -0.001 | [9] -0.038 | ralimetinib 0.018 | [10] 0.007 | [11] 0.019 | [12] -0.051 | [13] -0.064 | [14] 0.008 | [15] 0.078 | [16] 0.205
